Among the data in patent US20240150301A1, “METHODS OF MODULATING ANDROGEN RECEPTOR CONDENSATES” (ETERN BIOPHARMA (SHANGHAI) CO., LTD., priority 2021, published 2024) are IC50 values, retold here.

For this experiment, the system named is LNCaP cells. The experiment can be described thus: Cell proliferation assay (CellTiter-Glo), LNCaP. It is filed as cell-based. The note with it: Homo sapiens, 96 h, read-out: LNCaP IC50 AR-positive (cell proliferation). The procedure:
To evaluate the effect of exemplary compounds on proliferation of AR/AR-V7-dependent prostate cancer cells, cell viability assay was performed in LNCaP (AR-positive), 22Rv1 (AR-positive; AR-V7 positive), VCaP (AR-positive; AR-V7 positive), and DU145 (AR-negative) cells, respectively.
LNCaP cells were seeded in charcoal stripped FBS/phenol red-free RPMI medium in 96-well plates for 24 h before pretreating for 1 h with test compounds prior to addition of 0.2 nM DHT for 4 days. 22Rv1 or VCaP cells were cultured in charcoal stripped FBS/phenol red-free RPMI medium for 24 h before addition of test compounds for 4 days. DU145 cells were seeded in complete medium for 24 h before addition of test compounds for 4 days. Cell proliferation was measured with CellTiter-Glo® Luminescent Cell Viability Assay (Promega). In LNCaP cells, DHT-dependent cell growth is calculated by measuring the difference between vehicle control (DMSO) cells treated with or without 0.2 nM DHT. The IC50 values were determined using the four parameter fit via GraphPad Prism graphing software.
For orientation: Cellular ATP, detected with luciferase, serves as a proxy for viable cell number.

Each structure is given as a SMILES string.

Take `CNC(=O)c1ccc(N2C(=S)N(c3ccc(C#N)c(C(F)(F)F)c3)C(=O)C2(C)C)cc1F` [Enzalutamide, reference compound]: the IC50 came out at 230 nM.
